This experiment has as its target RBD fragment of human ROCK1 (947-1,015) (human) (UniProt Q13464). Kind of experiment: SEC; Superose 6; 10-fold molar excess of RhoA-GMPPNP over ROCK; 20 mM Tris pH 7.5, 1 mM TCEP, 4 mM MgCl2, with or without 100 mM NaCl; both purified. A general note: In gel filtration, larger molecules generally elute earlier.

Sequences of proteins named here, by UniProt entry; tags and fusion partners are left off. Residues count along the entry.
UniProt Q13464, residues 947-1015: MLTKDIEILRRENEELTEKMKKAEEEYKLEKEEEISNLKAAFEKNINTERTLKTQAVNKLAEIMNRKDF
UniProt P61586, residues 1-181: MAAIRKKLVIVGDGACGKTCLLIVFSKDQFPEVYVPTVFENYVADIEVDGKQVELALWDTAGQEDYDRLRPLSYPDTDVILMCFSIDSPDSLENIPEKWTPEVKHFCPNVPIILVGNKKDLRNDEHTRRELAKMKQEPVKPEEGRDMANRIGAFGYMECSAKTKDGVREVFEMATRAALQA

Consider one substance from paper PMC4686654.

These are yes or no findings as the source states them, for the method shown.

For the substance “RhoA 1-181, loaded with GMPPNP (from UniProt P61586 1-181) (domain or fragment)”, the binding entry is reported as “no binding (tested: 10-fold molar excess of RhoA-GMPPNP)”.
